{
  "source": "patent US9283236B2",
  "about": "(HUMAN MATRIX SCIENCES, LLC, priority 2008, dated 2016)",
  "test_system": "human fetal cardiac fibroblasts",
  "assay": "Quantitative assay of [3H]valine-labeled insoluble elastin",
  "format": "cell-based",
  "settings": "72 hours",
  "note": "“Also recorded” adds a separate entry of the source. At least one structure is not confirmed: it was looked up by name or label, or the drawing left a doubt.",
  "data": [
    {"smiles": "COC[C@H]1OC(=O)c2coc3c2[C@@]1(C)C1=C(C3=O)[C@@H]2CCC(=O)[C@@]2(C)C[C@H]1OC(C)=O", "note": "[wortmannin, Wortmannin]", "values": [
      {"measurement": "effect on aldosterone-induced increase in insoluble elastin production", "setting": "agent added 1 hour before aldosterone (50 nM or 1 to 50 nmol/L)", "result": "abolished the elastogenic effects of both stimulators; also recorded: returned insoluble elastin production to control values"},
      {"measurement": "effect on IGF-I-induced increase in insoluble elastin production", "setting": "pretreatment or siRNA transfection before 100 ng/ml IGF-I", "result": "abolished the elastogenic effects of both stimulators; also recorded: returned insoluble elastin production to control values"}
    ]}
  ]
}
